This is one part of the list.
Tests used:
Experiment in all cases: log2 fold change, soluble protein after heating vs DMSO (PISA); higher = thermal stabilisation; K562 lysate, 10 uM; active = over 0.2 and 3.5 SD of the protein, either way, in both replicates (recomputed)
erlotinib = compound: C#Cc1cccc(Nc2ncnc3cc(OCCOC)c(OCCOC)cc23)c1 [erlotinib]
Method in brief: (§1)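 K562 pellets were dounce-homogenised in PBS pH 7.4 containing 1 mM MgCl2, and the crude extract, at 1 mg/mL protein, was exposed to 10 μM compound for 30 min. Aliquots were heated for 3 min across 48°C-58°C, pooled, brought to 0.5% NP-40 at 4°C and spun at 21,000xg for 90 min, with the supernatant taken as soluble protein. TMTpro 16plex LC-MS/MS with equalised channel sums quantified that protein. Values are log-two fold changes in thermal stability relative to solvent controls, taken from duplicates.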

The chains behind the UniProt entries cited, without tags or fusion partners. Where a name states a change or a piece, a line headed by the entry shows the natural chain unless it says otherwise.
UniProt O95155, whole entry, looked up: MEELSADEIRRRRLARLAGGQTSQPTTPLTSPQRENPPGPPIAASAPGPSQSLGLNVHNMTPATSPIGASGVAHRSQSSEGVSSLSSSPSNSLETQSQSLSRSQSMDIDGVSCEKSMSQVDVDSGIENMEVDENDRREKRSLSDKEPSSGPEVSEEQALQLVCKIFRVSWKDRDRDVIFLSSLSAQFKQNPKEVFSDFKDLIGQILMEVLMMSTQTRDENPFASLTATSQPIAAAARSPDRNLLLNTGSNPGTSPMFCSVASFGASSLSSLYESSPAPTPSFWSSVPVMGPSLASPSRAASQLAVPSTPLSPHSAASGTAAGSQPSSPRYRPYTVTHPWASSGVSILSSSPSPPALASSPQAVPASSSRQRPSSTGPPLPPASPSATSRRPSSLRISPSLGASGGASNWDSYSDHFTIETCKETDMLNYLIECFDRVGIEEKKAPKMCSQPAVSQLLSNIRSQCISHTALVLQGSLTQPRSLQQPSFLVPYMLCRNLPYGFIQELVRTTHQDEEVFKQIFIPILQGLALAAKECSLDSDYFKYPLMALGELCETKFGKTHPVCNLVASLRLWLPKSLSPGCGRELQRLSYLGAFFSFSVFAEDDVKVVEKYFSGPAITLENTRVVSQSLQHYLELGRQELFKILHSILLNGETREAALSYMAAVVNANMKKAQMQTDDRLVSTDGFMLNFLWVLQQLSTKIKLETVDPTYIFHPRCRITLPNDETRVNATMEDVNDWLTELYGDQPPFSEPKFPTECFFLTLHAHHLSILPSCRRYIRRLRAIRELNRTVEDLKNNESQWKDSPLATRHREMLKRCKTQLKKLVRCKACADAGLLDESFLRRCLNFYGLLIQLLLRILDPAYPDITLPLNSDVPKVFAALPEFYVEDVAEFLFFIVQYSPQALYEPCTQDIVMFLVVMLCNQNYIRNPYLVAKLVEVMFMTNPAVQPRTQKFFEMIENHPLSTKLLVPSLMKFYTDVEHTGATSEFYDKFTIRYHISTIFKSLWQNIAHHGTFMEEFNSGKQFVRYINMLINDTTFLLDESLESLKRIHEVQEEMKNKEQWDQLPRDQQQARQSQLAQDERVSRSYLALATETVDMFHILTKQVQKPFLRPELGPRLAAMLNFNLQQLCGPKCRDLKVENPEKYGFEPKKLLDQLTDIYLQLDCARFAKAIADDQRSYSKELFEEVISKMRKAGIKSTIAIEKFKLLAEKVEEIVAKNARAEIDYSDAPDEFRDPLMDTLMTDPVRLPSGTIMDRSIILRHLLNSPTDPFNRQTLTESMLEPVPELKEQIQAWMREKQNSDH
UniProt Q9UGJ1, whole entry, looked up: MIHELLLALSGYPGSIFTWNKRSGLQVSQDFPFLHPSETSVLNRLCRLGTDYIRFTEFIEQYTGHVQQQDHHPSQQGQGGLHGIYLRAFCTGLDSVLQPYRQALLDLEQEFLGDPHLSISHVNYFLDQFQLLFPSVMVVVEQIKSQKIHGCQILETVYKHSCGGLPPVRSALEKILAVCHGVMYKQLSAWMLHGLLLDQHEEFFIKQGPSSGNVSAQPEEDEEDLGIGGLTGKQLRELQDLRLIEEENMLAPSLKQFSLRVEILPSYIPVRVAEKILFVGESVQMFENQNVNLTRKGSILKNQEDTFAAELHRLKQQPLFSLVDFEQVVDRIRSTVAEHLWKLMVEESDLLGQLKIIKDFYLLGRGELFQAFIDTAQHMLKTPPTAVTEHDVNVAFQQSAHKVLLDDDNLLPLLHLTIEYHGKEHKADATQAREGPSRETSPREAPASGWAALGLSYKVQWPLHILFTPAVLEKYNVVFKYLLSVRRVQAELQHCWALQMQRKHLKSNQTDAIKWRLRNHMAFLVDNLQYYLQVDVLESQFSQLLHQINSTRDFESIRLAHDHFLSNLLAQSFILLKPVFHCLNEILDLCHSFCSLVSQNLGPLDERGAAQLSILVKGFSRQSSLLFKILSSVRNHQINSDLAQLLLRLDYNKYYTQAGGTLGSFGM
UniProt P62256: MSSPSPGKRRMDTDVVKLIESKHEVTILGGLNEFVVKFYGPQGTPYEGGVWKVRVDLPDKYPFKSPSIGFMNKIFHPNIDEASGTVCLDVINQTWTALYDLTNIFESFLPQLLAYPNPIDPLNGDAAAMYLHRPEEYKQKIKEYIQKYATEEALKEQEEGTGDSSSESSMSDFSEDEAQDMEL
UniProt Q9UHD9, whole entry, looked up: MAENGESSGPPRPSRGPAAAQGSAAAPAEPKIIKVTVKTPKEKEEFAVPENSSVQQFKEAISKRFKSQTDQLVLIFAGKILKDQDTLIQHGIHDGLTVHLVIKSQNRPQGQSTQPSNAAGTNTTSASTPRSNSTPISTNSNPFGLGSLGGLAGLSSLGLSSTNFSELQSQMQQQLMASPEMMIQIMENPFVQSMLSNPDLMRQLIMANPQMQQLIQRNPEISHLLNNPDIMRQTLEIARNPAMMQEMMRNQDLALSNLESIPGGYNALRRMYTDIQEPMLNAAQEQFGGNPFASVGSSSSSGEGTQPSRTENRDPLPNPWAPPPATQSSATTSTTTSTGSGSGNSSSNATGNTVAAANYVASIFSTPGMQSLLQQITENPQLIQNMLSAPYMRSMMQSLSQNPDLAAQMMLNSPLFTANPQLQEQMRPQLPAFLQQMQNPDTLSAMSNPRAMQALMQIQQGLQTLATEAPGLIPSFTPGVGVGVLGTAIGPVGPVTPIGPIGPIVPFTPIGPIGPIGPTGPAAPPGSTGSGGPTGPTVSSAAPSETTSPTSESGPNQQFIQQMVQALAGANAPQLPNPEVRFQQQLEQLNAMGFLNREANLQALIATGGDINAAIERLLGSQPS
UniProt Q7Z7E8: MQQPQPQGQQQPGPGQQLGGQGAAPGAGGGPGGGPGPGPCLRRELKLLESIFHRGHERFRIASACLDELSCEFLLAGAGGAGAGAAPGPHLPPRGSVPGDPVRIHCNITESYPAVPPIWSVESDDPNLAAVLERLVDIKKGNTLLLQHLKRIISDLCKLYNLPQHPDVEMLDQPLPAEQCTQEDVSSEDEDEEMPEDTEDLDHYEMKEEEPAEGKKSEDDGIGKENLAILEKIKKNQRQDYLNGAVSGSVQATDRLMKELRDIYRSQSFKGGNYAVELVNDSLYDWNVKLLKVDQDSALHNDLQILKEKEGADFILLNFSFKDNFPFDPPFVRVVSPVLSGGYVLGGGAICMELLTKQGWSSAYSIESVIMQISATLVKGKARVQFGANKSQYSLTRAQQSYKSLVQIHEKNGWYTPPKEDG
UniProt P15374: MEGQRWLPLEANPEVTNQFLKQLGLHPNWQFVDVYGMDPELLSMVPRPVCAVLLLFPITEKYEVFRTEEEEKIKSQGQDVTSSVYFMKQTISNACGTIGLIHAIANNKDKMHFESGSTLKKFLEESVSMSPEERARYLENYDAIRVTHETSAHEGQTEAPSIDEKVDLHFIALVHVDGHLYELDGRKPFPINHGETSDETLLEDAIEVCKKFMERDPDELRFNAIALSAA
UniProt P68363, whole entry, looked up: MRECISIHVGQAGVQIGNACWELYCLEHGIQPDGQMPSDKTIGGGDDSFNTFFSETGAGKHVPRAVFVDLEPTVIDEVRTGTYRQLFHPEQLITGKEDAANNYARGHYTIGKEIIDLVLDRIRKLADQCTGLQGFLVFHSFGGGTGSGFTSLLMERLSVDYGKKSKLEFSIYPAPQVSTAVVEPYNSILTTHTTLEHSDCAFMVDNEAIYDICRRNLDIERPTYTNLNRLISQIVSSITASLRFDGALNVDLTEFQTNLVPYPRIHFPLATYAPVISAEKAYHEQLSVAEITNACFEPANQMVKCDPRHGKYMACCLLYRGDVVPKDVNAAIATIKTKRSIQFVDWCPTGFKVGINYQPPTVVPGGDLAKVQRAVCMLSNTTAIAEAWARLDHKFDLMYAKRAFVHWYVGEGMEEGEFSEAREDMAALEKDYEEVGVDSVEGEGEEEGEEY
UniProt Q8IWV8: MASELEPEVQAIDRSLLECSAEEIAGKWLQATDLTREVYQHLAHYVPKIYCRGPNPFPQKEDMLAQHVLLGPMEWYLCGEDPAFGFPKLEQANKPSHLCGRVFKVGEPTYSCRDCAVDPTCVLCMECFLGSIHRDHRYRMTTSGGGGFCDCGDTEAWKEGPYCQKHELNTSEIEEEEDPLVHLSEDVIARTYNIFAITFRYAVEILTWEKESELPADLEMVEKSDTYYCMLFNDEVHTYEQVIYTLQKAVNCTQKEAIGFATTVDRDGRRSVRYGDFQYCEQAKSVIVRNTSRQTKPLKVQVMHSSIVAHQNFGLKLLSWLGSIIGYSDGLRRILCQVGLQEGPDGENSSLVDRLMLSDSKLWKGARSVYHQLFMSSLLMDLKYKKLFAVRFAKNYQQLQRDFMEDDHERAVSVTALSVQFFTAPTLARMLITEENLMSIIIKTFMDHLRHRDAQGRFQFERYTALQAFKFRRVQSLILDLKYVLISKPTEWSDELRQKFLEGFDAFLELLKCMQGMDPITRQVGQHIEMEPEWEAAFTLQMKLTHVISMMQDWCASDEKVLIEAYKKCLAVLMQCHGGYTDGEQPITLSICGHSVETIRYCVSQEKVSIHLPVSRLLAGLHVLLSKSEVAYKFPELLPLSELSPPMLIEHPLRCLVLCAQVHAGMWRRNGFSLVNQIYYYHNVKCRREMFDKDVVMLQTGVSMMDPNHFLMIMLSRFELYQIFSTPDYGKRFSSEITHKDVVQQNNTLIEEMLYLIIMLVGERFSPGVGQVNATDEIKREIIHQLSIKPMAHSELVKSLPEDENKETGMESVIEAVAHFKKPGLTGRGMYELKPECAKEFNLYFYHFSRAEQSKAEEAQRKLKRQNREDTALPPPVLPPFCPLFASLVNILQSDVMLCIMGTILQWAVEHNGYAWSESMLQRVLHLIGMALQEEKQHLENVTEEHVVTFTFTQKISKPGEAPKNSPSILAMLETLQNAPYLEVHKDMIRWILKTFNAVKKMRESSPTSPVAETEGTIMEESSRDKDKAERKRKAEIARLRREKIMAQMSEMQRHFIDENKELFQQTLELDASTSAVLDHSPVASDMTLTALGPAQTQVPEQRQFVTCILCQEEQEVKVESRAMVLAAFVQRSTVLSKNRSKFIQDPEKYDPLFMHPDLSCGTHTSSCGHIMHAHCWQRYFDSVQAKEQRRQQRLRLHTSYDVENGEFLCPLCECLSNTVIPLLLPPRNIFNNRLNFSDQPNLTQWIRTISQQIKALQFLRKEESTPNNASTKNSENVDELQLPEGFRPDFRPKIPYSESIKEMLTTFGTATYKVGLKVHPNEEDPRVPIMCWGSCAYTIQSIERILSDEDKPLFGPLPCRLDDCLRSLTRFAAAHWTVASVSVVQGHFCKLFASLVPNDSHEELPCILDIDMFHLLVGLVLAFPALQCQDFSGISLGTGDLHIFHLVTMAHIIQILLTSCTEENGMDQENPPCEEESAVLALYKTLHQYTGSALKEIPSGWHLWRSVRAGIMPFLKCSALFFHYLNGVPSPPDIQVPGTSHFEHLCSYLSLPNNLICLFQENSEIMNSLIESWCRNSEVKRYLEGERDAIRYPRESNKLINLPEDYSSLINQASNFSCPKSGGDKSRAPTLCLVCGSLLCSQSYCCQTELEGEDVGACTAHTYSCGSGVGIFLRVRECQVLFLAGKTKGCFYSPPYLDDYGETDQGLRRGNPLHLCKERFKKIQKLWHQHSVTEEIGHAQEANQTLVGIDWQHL
UniProt Q9BTX7: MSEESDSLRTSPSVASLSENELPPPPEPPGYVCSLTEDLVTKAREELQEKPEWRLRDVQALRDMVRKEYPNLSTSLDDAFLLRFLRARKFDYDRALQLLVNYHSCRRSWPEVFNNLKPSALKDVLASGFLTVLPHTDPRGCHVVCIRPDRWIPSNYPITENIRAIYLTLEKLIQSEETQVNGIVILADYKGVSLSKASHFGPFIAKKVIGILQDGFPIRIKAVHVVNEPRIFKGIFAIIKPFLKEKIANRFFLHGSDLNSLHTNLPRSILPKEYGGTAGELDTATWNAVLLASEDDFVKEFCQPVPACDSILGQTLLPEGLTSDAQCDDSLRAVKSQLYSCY
UniProt P63279, whole entry, looked up: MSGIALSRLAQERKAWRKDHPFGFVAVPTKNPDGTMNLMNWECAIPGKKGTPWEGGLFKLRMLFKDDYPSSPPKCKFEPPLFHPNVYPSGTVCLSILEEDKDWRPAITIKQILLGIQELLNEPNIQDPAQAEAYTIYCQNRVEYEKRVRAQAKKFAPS
UniProt Q8N806: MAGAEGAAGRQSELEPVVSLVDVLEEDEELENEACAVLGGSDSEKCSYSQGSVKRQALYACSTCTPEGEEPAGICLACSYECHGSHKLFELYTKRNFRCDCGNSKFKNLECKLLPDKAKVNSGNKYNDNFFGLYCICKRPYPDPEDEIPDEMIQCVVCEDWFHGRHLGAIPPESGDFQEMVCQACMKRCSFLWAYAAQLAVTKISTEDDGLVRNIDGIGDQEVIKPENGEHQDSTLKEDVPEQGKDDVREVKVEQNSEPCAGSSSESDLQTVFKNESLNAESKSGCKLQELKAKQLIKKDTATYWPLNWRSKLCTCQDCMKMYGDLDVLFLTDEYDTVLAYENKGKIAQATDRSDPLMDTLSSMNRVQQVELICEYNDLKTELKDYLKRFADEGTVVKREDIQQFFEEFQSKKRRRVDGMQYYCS

[1] = compound: C/C(=N\NC(=O)C1=CC(=CC=C1)S(=O)(=O)N2CCOCC2)/C3=C(C=CC(=C3)Cl)O
Method in brief: as §1

[2] = compound: C1=CC(=CC=C1C2=NC3=C(N2)C=C(C=C3)C(=O)N)OC4=CC=C(C=C4)Cl
Method in brief: as §1

[3] = compound: C1=CC2=C(C=CC(=C2)/C=C\3/C(=O)NC(=NCC4=CC=CS4)S3)N=C1
Method in brief: as §1

[4] = compound: C1=CC2=NC=CN=C2C=C1/C=C/3\C(=O)NC(=O)S3
Method in brief: as §1

[5] = compound: C1=CC=C(C=C1)C2=NC(=C(N2)C3=CC=NC=C3)C4=CC(=C(C=C4)Cl)O
Method in brief: as §1

[6] = compound: C1=CC=C2C(=C1)C3=NNC4=CC=CC(=C43)C2=O
Method in brief: as §1

[7] = compound: C1CCN(C1)C(=O)NC2=CC=CC(=C2)NC3=NC=C(C(=N3)NCCC4=CN=CN4)Br
Method in brief: as §1

[8] = compound: C1CN(CCC1(CC2=CC=C(C=C2)Cl)N)C3=NC=NC4=C3C=CN4
Method in brief: as §1

IRAK-1-4 Inhibitor I = compound: C1COCCN1CCN2C3=CC=CC=C3N=C2NC(=O)C4=CC(=CC=C4)[N+](=O)[O-] [IRAK-1-4 Inhibitor I]
Method in brief: as §1

ibrutinib = compound: C=CC(=O)N1CCC[C@@H](n2nc(-c3ccc(Oc4ccccc4)cc3)c3c(N)ncnc32)C1 [ibrutinib]
Method in brief: as §1

[9] = compound: CC(=O)c1cnc2ccc(-c3cc(Cl)c(O)c(Cl)c3)nc2c1N[C@H]1CC[C@H](CN(C)C)CC1
Method in brief: as §1

ralimetinib = compound: CC(C)(C)Cn1c(N)nc2ccc(-c3[nH]c(C(C)(C)C)nc3-c3ccc(F)cc3)nc21 [ralimetinib]
Method in brief: as §1

[10] = compound: CC(C)(O)CC(=O)NCCn1ccc2ncnc(Nc3ccc(Oc4cccc(C(F)(F)F)c4)c(Cl)c3)c21
Method in brief: as §1

[11] = compound: CC(C)C1=C2N=C(C=C(N2N=C1)NCC3=CC=CC=C3)NCCCCCCN
Method in brief: as §1

[12] = compound: CC1=C(C(CC(=O)N1)C2=CC=C(C=C2)C(F)(F)F)C(=O)NC3=C(C=C4C(=C3)C=NN4)F
Method in brief: as §1

[13] = compound: CC1=C(C2=C(C=C1)C(=O)C3=CC=CC=C3N2CCCN)C
Method in brief: as §1

[14] = compound: CC1=C(C=C(C=C1)NC(=O)C2=CC(=CC=C2)C(C)(C)C#N)NC3=CC4=C(C=C3)N=CN(C4=O)C
Method in brief: as §1

[15] = compound: CC1=C(C=C(C=C1)NC(=O)C2=CC(=CC=C2)N(C)C)NC(=O)C3=CC=C(C=C3)O
Method in brief: as §1

[16] = compound: CC1=CC=C(C=C1)SC2=C3C=C(SC3=CN=C2)C(=O)N
Method in brief: as §1

Measured: log2 fold change

UBE4B isoform 4 (UniProt O95155)
inactive: erlotinib 0.025 | [1] 0.012 | [2] 0.001 | [3] 0.013 | [4] 0.021 | [5] -0.008 | [6] -0.039 | [7] -0.003 | [8] 0.003 | IRAK-1-4 Inhibitor I 0.018 | ibrutinib 0.004 | [9] -0.005 | ralimetinib -0.002 | [10] -0.039 | [11] -0.015 | [12] -0.018 | [13] 0 | [14] 0.01 | [15] 0.016 | [16] -0.008

TXNL1 (UniProt O43396)
inactive: erlotinib 0.013 | [1] 0.003 | [2] 0.018 | [3] 0 | [4] 0.001 | [5] -0.006 | [6] 0.007 | [7] 0.021 | [8] -0.005 | IRAK-1-4 Inhibitor I 0 | ibrutinib -0.006 | [9] 0.003 | ralimetinib -0.002 | [10] 0 | [11] -0.002 | [12] -0.006 | [13] 0.001 | [14] 0.017 | [15] 0.008 | [16] 0.002

TUBGCP4 (UniProt Q9UGJ1)
inactive: erlotinib -0.017 | [1] -0.017 | [2] -0.007 | [3] 0.015 | [4] -0.018 | [5] -0.01 | [6] -0.028 | [7] 0.133 | [8] 0.045 | IRAK-1-4 Inhibitor I 0.052 | ibrutinib 0 | [9] -0.051 | ralimetinib 0.052 | [10] -0.037 | [11] 0 | [12] 0.021 | [13] -0.048 | [14] -0.002 | [15] 0.05 | [16] 0.043

UBE2H (UniProt P62256)
inactive: erlotinib -0.002 | [1] -0.002 | [2] 0.009 | [3] 0.008 | [4] 0.014 | [5] 0.029 | [6] 0.019 | [7] 0.013 | [8] -0.036 | IRAK-1-4 Inhibitor I -0.026 | ibrutinib 0.032 | [9] 0.026 | ralimetinib -0.033 | [10] -0.002 | [11] -0.004 | [12] 0.064 | [13] 0.022 | [14] 0.005 | [15] 0.026 | [16] -0.027

UBQLN2 (UniProt Q9UHD9)
inactive: erlotinib 0.017 | [1] -0.011 | [2] 0.052 | [3] 0.018 | [4] -0.03 | [5] -0.005 | [6] 0.01 | [7] -0.025 | [8] 0.058 | IRAK-1-4 Inhibitor I -0.009 | ibrutinib 0.132 | [9] 0.001 | ralimetinib -0.005 | [10] -0.052 | [11] 0.01 | [12] -0.014 | [13] -0.014 | [14] 0.035 | [15] 0.059 | [16] -0.017

UBE2Q1 (UniProt Q7Z7E8)
inactive: erlotinib -0.005 | [1] 0.009 | [2] 0.029 | [3] 0.002 | [4] -0.001 | [5] -0.009 | [6] -0.012 | [7] -0.005 | [8] 0.027 | IRAK-1-4 Inhibitor I 0.036 | ibrutinib 0.018 | [9] -0.031 | ralimetinib 0.024 | [10] -0.017 | [11] -0.011 | [12] 0.007 | [13] -0.014 | [14] 0.004 | [15] 0.016 | [16] -0.049

UCHL3 (UniProt P15374)
inactive: erlotinib -0.018 | [1] 0.053 | [2] -0.005 | [3] -0.001 | [4] -0.066 | [5] -0.039 | [6] 0.007 | [7] 0.02 | [8] 0.004 | IRAK-1-4 Inhibitor I -0.007 | ibrutinib 0.041 | [9] 0.013 | ralimetinib 0.035 | [10] 0.059 | [11] 0 | [12] 0.003 | [13] 0.049 | [14] -0.044 | [15] -0.011 | [16] 0.035

TUBA1B (UniProt P68363)
inactive: erlotinib 0.031 | [1] -0.022 | [2] 0.009 | [3] -0.018 | [4] 0.006 | [5] -0.013 | [6] -0.018 | [7] 0.009 | [8] 0.02 | IRAK-1-4 Inhibitor I 0.022 | ibrutinib -0.012 | [9] 0.008 | ralimetinib 0.025 | [10] 0.003 | [11] 0.021 | [12] -0.011 | [13] -0.003 | [14] 0.018 | [15] 0.022 | [16] 0.005

TXNRD2 (UniProt Q9NNW7)
inactive: erlotinib -0.01 | [1] -0.085 | [2] 0.049 | [3] 0.008 | [4] -0.025 | [5] 0.009 | [6] -0.031 | [7] 0.017 | [8] 0.044 | IRAK-1-4 Inhibitor I -0.007 | ibrutinib 0.014 | [9] -0.002 | ralimetinib 0.025 | [10] -0.107 | [11] 0 | [12] 0.008 | [13] -0.038 | [14] -0.014 | [15] 0.001 | [16] 0.006

UBXN6 (UniProt Q9BZV1)
inactive: erlotinib -0.02 | [1] 0.001 | [2] 0.001 | [3] -0.024 | [4] 0.006 | [5] 0.036 | [6] -0.073 | [7] 0 | [8] -0.005 | IRAK-1-4 Inhibitor I -0.007 | ibrutinib 0.046 | [9] 0.174 | ralimetinib 0.037 | [10] -0.012 | [11] 0.019 | [12] 0.121 | [13] -0.059 | [14] -0.038 | [15] 0.031 | [16] 0.041

2 records picked at random from those above:
TUBA1B (UniProt P68363)
inactive: erlotinib 0.031 | [1] -0.022 | [2] 0.009 | [3] -0.018 | [4] 0.006 | [5] -0.013 | [6] -0.018 | [7] 0.009 | [8] 0.02 | IRAK-1-4 Inhibitor I 0.022 | ibrutinib -0.012 | [9] 0.008 | ralimetinib 0.025 | [10] 0.003 | [11] 0.021 | [12] -0.011 | [13] -0.003 | [14] 0.018 | [15] 0.022 | [16] 0.005

UBXN6 (UniProt Q9BZV1)
inactive: erlotinib -0.02 | [1] 0.001 | [2] 0.001 | [3] -0.024 | [4] 0.006 | [5] 0.036 | [6] -0.073 | [7] 0 | [8] -0.005 | IRAK-1-4 Inhibitor I -0.007 | ibrutinib 0.046 | [9] 0.174 | ralimetinib 0.037 | [10] -0.012 | [11] 0.019 | [12] 0.121 | [13] -0.059 | [14] -0.038 | [15] 0.031 | [16] 0.041

(further entries)

UBR2 isoform 4 (UniProt Q8IWV8)
inactive: erlotinib 0.024 | [1] 0.034 | [2] 0.021 | [3] 0.029 | [4] -0.002 | [5] -0.031 | [6] 0.012 | [7] -0.031 | [8] -0.004 | IRAK-1-4 Inhibitor I 0.002 | ibrutinib 0.05 | [9] -0.002 | ralimetinib 0.029 | [10] -0.022 | [11] -0.004 | [12] 0.004 | [13] -0.016 | [14] 0.02 | [15] -0.039 | [16] -0.002

TTPAL (UniProt Q9BTX7)
inactive: erlotinib -0.012 | [1] 0.006 | [2] 0.002 | [3] -0.016 | [4] 0.029 | [5] 0.039 | [6] 0.016 | [7] 0.024 | [8] 0.036 | IRAK-1-4 Inhibitor I 0.071 | ibrutinib 0 | [9] -0.021 | ralimetinib -0.029 | [10] -0.084 | [11] -0.065 | [12] -0.052 | [13] 0.046 | [14] 0.015 | [15] -0.041 | [16] -0.018

UBE2I (UniProt P63279)
inactive: erlotinib -0.001 | [1] 0.037 | [2] 0.008 | [3] -0.01 | [4] 0.007 | [5] 0 | [6] 0.023 | [7] 0.034 | [8] 0.021 | IRAK-1-4 Inhibitor I 0.007 | ibrutinib 0.052 | [9] -0.021 | ralimetinib -0.012 | [10] 0.001 | [11] 0.03 | [12] -0.017 | [13] 0.052 | [14] 0.055 | [15] 0.01 | [16] -0.002

UBR7 (UniProt Q8N806)
inactive: erlotinib -0.011 | [1] -0.046 | [2] 0.036 | [3] 0.025 | [4] -0.017 | [5] 0.007 | [6] -0.006 | [7] 0.029 | [8] 0.007 | IRAK-1-4 Inhibitor I -0.012 | ibrutinib 0.032 | [9] -0.012 | ralimetinib -0.025 | [10] -0.003 | [11] -0.006 | [12] -0.006 | [13] 0.033 | [14] -0.02 | [15] -0.006 | [16] 0

TXN (UniProt P10599)
inactive: erlotinib -0.01 | [1] 0.024 | [2] 0.025 | [3] 0.025 | [4] 0.011 | [5] 0.023 | [6] 0.032 | [7] 0.012 | [8] -0.015 | IRAK-1-4 Inhibitor I 0 | ibrutinib -0.061 | [9] 0 | ralimetinib -0.029 | [10] 0.007 | [11] -0.014 | [12] -0.038 | [13] -0.002 | [14] -0.008 | [15] -0.007 | [16] -0.015
